Experimental data reported in paper PMC4360782, “A new high-performance heterologous fungal expression system based on regulatory elements from the Aspergillus terreus terrein gene cluster”.
Results are given in words; binding and its absence hold for the method and conditions named.

Target: TerR_(35-138), fragment of the Aspergillus terreus transcription factor TerR with the zinc binuclear cluster DNA-binding domain (Aspergillus terreus) (UniProt Q0D1P5)
Test: SEC-MALS; Superdex 200 10/300 GL column in series with a miniDawn TREOS static light scattering monitor and an Optilab T-rEX refractometer; molar mass calculated with ASTRA 6; both purified

B1: TerR_(35-138), fragment of the Aspergillus terreus transcription factor TerR with the zinc binuclear cluster DNA-binding domain (domain or fragment, UniProt Q0D1P5 35-138)
chain: SSVRKKKWMSRRRGACDMCKSKKVRCDGGTPCSYCNLHDLRCEYQLSKKQQTNKPPVASAAEDVSIVPSYAENNGSGVTTQVPSPSDVQVLPELTANRGSGNAG
- binding: no binding
